This note sets out measurements from paper PMC5832925, “Hypoxia-inducible lipid droplet-associated protein inhibits adipose triglyceride lipase” (Journal of Lipid Research, 2018).

No constants are given. Whether binding was seen depends on the method and setting. Binding seen in cells or lysates may run through a third protein. Some entries that bind do so weakly or less than the wild type. Where a sequence is shown, tags or fusion partners need not be part of it.

The assay has as its target T1, mATGL_FL_flag (mouse adipose triglyceride lipase, full length) (mouse) (UniProt Q8BJ56).
T1 sequence: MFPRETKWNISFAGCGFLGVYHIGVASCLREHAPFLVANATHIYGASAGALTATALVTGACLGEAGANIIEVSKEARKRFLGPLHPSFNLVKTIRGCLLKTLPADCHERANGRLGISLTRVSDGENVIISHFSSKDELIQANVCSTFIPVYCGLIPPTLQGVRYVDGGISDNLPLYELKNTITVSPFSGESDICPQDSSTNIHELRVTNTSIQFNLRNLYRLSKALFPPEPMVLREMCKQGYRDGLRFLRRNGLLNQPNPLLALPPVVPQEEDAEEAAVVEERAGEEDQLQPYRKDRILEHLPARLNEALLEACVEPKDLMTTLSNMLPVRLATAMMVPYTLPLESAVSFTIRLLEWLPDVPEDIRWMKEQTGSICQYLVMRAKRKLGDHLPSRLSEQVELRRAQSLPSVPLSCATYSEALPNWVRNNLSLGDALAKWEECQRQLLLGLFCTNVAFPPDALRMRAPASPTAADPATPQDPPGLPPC
Briefly: co-IP; 350 μg HEK293 cell lysate with anti-Flag M2 agarose beads overnight at 4°C; 50 mM Tris-HCl pH 7.4, 150 mM NaCl, 1 mM EDTA, 1% NP40; blots with anti-Flag and Penta His antibodies.

B1: 6XHis-smt3-TEV-hHILPDA (human hypoxia-inducible lipid droplet-associated protein, full length) (natural protein, UniProt Q9Y5L2 1-63, looked up)
chain: MKHVLNLYLLGVVLTLLSIFVRVMESLEGLLESPSPGTSWTTRSQLANTEPTKGLPDHPSRSM
notes: human HILPDA (Hig-2), 63 amino acids, construct hHILPDA_1-63 in a modified pSUMO vector with 6XHis tag and TEV site; The fusion protein (22 kDa) was used without removal of smt3; a TEV site lies between smt3 and HILPDA; also called smt3-HILPDA fusion protein; source: E. coli BL21-CodonPlus (DE3)-RIL, purified (HisTrap FF, Superdex 200); not shown: smt3, N-terminal, kept
B1: the binding result is “binds”.
